PubChem BioAssay AID1259260 – Sanger Institute – 2017
In all, the deposit lists 794 reagents; below is a random part of them. In the full data, 13 (1.6%) were called active. 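Calls reflect only knock-down without drug; synergy above 0.15 was grouped apart and does not change the call.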 Entries without a mark were called inactive. No viability above 1 is reported: the scale is capped. Not all columns of the deposit are shown. The record does not give: the amount of reagent, the time to read-out.

Aim: 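Essential and drug-synergistic kinases in a colorectal cancer cell line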 (primary screen)
Cell system: human NCI-H716 colorectal cancer cells
Knock-down reagent: siRNA pool against human genes
Challenge: anchor drugs BYL719 (alpelisib) 1 µM, cetuximab 5 µg/ml or trametinib 10 nM, each at a dose chosen to harm viability only mildly; DMSO vehicle for the knock-down-alone arm
Detection: 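Mean viability over replicates against non-targeting siRNA, robust z-score without drug, and per-drug synergy comparing combined with single treatments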
Direction: viability robust z-score, siRNA alone: higher = more surviving cells; below -3 called essential; viability vs control, no drug: higher = more surviving cells
Rule for the call: 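Essential when the robust z-score for knock-down alone falls below -3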
Calls: active = essential (knock-down alone lowers viability); inactive = no essential effect

| gene symbol | viability robust z-score, siRNA alone | viability vs control, no drug (fraction of control) |
| --- | --- | --- |
| SMG1 | 0.602 | 1 |
| PIK3R5 (phosphoinositide-3-kinase regulatory subunit 5) | 0.602 | 1 |
| UCK1 (uridine-cytidine kinase 1) | 0.602 | 1 |
| TNNI3K (TNNI3 interacting kinase) | 0.602 | 1 |
| BRSK2 (BR serine/threonine kinase 2) | 0.602 | 1 |
| BRAF (B-Raf proto-oncogene, serine/threonine kinase) | 0.409 | 0.98 |
| NEK11 (NIMA related kinase 11) | -2.73 | 0.654 |
| SOX9 (SRY-box transcription factor 9) | 0.602 | 1 |
| CASK (calcium/calmodulin dependent serine protein kinase) | 0.602 | 1 |
| CLK3 (CDC like kinase 3) | 0.362 | 0.975 |
| PFKM (phosphofructokinase, muscle) | 0.602 | 1 |
| MAPK9 (mitogen-activated protein kinase 9) | 0.602 | 1 |
| ACVR1C (activin A receptor type 1C) | -0.992 | 0.834 |
| FXR1 (FMR1 autosomal homolog 1) | 0.277 | 0.966 |
| AK3 (adenylate kinase 3) | 0.602 | 1 |
| TEX14 (testis expressed 14, intercellular bridge forming factor) | -0.0244 | 0.935 |
| LMTK3 (lemur tail kinase 3) | -2.45 | 0.683 |
| PFKFB4 (6-phosphofructo-2-kinase/fructose-2,6-biphosphatase 4) | -0.394 | 0.896 |
| HIPK1 (homeodomain interacting protein kinase 1) | 0.602 | 1 |
| SCYL1 (SCY1 like pseudokinase 1) | 0.602 | 1 |

A stretch from the list above, for reference:
| gene symbol | viability robust z-score, siRNA alone | viability vs control, no drug (fraction of control) |
| --- | --- | --- |
| MAPK9 (mitogen-activated protein kinase 9) | 0.602 | 1 |
| ACVR1C (activin A receptor type 1C) | -0.992 | 0.834 |
